Laboratory results from the supplement of paper PMC3334620.
The full ranking holds about 33,000 sequences; the median of “E-score (-0.5 to 0.5)” is about -0.016, and the highest 2% start at about 0.3. This is one part of the list.

Each sequence was assayed against T1, Yer184c (UniProt P39961) (assay: PBM E-score (8-mer binding enrichment) (E-score (-0.5 to 0.5)); higher = stronger / more preferred TF binding). Conditions: protein concentration: 100 nM; construct: GST-full length.
T1 sequence: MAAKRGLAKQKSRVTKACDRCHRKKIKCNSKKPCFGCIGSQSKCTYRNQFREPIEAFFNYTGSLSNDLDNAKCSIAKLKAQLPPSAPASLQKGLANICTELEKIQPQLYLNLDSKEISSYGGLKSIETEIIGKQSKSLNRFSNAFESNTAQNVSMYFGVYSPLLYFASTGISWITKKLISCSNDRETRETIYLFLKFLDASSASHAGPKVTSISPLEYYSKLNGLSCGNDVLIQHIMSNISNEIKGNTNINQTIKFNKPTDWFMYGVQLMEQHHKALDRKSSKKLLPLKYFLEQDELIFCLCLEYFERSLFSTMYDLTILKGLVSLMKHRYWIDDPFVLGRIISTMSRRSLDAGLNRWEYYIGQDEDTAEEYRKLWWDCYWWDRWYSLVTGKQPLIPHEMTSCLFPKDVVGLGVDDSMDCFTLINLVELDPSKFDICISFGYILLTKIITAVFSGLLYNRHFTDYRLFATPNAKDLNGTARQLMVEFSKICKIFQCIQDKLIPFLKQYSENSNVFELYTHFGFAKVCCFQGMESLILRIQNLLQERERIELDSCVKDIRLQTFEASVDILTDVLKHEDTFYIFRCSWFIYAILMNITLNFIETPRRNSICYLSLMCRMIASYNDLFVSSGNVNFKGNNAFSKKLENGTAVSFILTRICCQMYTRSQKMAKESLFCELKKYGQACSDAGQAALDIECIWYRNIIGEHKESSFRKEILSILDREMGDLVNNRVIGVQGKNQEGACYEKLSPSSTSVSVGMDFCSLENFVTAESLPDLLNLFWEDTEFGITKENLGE
Procedure, shortened: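 Yeast transcription factors, full-length or as DNA-binding domains, were expressed with a GST tag using PURExpress in vitro transcription/translation. At about 100-200 nM they were applied to universal all-10-mer Agilent arrays, double-stranded by primer extension on fresh or once-stripped slides. Fluorescent anti-GST detected bound protein, and masliner normalised the scans. E-scores for ungapped eight-base words, pooled with reverse complements, came from the Universal PBM Analysis Suite.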

| Sequence | PBM E-score |
| --- | --- |
| CAGGGCCA | -0.365 |
| AACGCTAT | -0.159 |
| ACGATCCT | -0.147 |
| ACTGTCCC | -0.202 |
| AAGAGGGC | -0.223 |
| TAGTCGCA | -0.0672 |
| CGAATGCG | 0.147 |
| CCTCCCGC | -0.12 |
| ACAGGACC | -0.0506 |
| AGCACGAG | 0.1 |
| GGTATCAA | -0.0802 |
| CGAGAACG | 0.179 |
| AGGGATCC | -0.168 |
| ATGTCGCG | -0.0449 |
| GCGAGACC | 0.00307 |
| ACTTGTTC | 0.218 |
| GCTGACCA | -0.0597 |
| GAAGAACC | -0.0402 |
| AATGAATT | 0.231 |
| CAGGTACC | -0.0701 |
| AGTCTGCG | -0.268 |
| GAAGCGTC | -0.184 |

| Sequence | PBM E-score |
| --- | --- |
| CCTCCTCG | -0.125 |
| GAACGGGC | -0.166 |
| CACATGGG | -0.251 |
| AGCATCCC | -0.223 |
| AGACCGAT | 0.0681 |
| GTTGGGGA | -0.207 |
| AGTGGGTA | -0.117 |
| CACGCAGA | -0.012 |
| ACTACAAC | 0.0197 |
| TATGGGAA | -0.0118 |
| AAAAACGA | 0.132 |
| TCTCCGCA | 0.0183 |
| ATAGCAAA | 0.144 |
| CATGCGGC | -0.101 |
| GTATGAGA | 0.0458 |
| GCAAGCCC | -0.0906 |
| AAGCGCGG | -0.116 |
| ATGAGGAA | 0.07 |
| CCAAGCGA | -0.23 |
| CCCGACAC | -0.218 |
| CAAGTTGG | 0.0116 |
| ATCCCATA | -0.0853 |

A different layout for some results above:
AGTGGGTA
  PBM E-score = -0.117
CACGCAGA
  PBM E-score = -0.012
ACTACAAC
  PBM E-score = 0.0197
TATGGGAA
  PBM E-score = -0.0118

Further results.

| Sequence | PBM E-score |
| --- | --- |
| ATACTGCG | -0.0752 |
| AGTCACAA | -0.109 |
| CATGGTCC | -0.103 |
| ATTTTTGC | 0.223 |
| GCGTGAGA | -0.0167 |
| AACCTTTC | 0.0841 |
| ATTGTCGG | 0.186 |
| CGGAAAAG | 0.248 |
| AACCAGCA | -0.0427 |
| CCACAACC | 0.189 |
| CTAGAGCC | -0.0934 |
| AAGAGAGT | -0.189 |
| CCTTAATA | -0.065 |
| ACTGGTGA | -0.286 |
| CCCCCCCA | -0.391 |
| GATGCATA | 0.0447 |
| CACTCTCC | 0.105 |
| CAAGATAG | -0.0569 |
| GGTACAGA | 0.0572 |
| CATCCTGC | -0.211 |
| GCGATTAC | -0.0336 |
| CCACTCAC | -0.126 |

| Sequence | PBM E-score |
| --- | --- |
| GACCGCGA | -0.0337 |
| AGAATTAC | 0.245 |
| GCTAGAAA | 0.166 |
| CTCACACA | -0.0396 |
| GAATGTCA | -0.0807 |
| CCAGACCA | -0.0635 |
| CAACTGGA | -0.174 |
| GATGCGCC | -0.0605 |
| AAGAATTG | 0.0346 |
| CTATGCAC | -0.206 |
| GACACACC | -0.095 |
| TGAGCCAA | -0.247 |
| ATGGGAGC | -0.111 |
| TAGCCATA | -0.109 |
| ACGCTAGC | -0.137 |
| AGTGCATA | -0.0583 |
| ATCTCCCC | -0.294 |
| ACAAATTA | 0.205 |
| ATGGGTCA | -0.192 |
| TGACACAA | 0.0374 |
